Data reported in publication PMC6154613, “Investigation of the Anti-Leishmania (Leishmania) infantum Activity of Some Natural Sesquiterpene Lactones” (Molecules : A Journal of Synthetic Chemistry and Natural …, 2017).

System: L. (L.) infantum intracellular amastigotes
Test: Activity against intracellular amastigotes in peritoneal macrophages, Giemsa staining and light microscopy
Assay type: cell-based, Leishmania (Leishmania) infantum
Details: selectivity index = CC50 in NCTC cells / IC50 in amastigotes
Experimental: L. (L.) infantum (MHOM/BR/1972/LD) promastigotes were maintained in M-199 medium supplemented with 10% heat-inactivated fetal bovine serum (FBS) (Gibco, Thermo Fisher Scientific, São Paulo, Brazil), 0.25% hemin (Sigma-Aldrich), and 5% human urine at 24 °C. Amastigotes were obtained from the spleen of previously infected hamsters by differential centrifugation. Macrophages were collected from the peritoneal cavity of BALB/c mice by washing with RPMI-1640 medium supplemented with 10% FBS, and were maintained at 37 °C in a 5% CO2-humidified incubator. Murine fibroblasts NCTC (clone L929 ATCC) were used to evaluate the cytotoxicity of the tested compounds. NCTC cells were maintained in M-199 medium supplemented with 10% FBS and 20 μg/mL gentamicin at 37 °C in a 5% CO2-humidified incubator.
Murine peritoneal macrophages were collected from the peritoneal cavity of BALB/c mice, and the macrophages were seeded at 1 × 10^5/well for 24 h in a 16-well slide. Amastigotes were prepared (as described previously), seeded at a ratio 1:10 (macrophages:amastigotes) and kept at 37 °C in a 5% CO2-humidified incubator for 24 h. Test compounds were incubated to the highest concentration of 100 μM with infected macrophages for 120 h. Miltefosine was used as a standard drug. Subsequently, the cells were fixed with methanol, stained with Giemsa (Merck KGaA, Darmstadt, Germany), and observed using a light microscope. The parasite burden was determined by the number of infected macrophages out of 400 cells.
Data processing and statistical analyses was done with GraphPad Prism® 5.0 (GraphPad Software, Inc. La Jolla, CA, USA). For determination of antileishmanial activity and NCTC cytotoxicity, the IC50 and CC50 values were calculated after normalization using sigmoidal dose-response curves. The evaluation of statistical significance of multiple pairs was done with a Tukey's range test, which corrects for the increased probability of a type I error during multiple comparison.

SMILES | SI (NCTC/Amastigote) | SI (NCTC/Amastigote) (listed as helenalin acetate (1))
C=C(CO)C(=O)O[C@H]1CC(=C)[C@@H]2C[C@H](O)C(=C)[C@@H]2[C@H]2OC(=O)C(=C)[C@@H]21 [Cynaropicrin (4), Cynaropicrin] | 4.8 | 
C=C1C(=O)O[C@H]2C[C@@H](C)[C@@H]3C=CC(=O)[C@@]3(C)[C@H](O)[C@H]12 [Mexicanin I (2), Mexicanin I] | 5.3 | 
C=C1C(=O)OC2CC(C)C3C=CC(=O)C3(C)C(OC(C)=O)C12 (centres unmarked) [Helenalin acetate (1), Helenalin acetate] | 7.0 | 7
C=C1C(=O)O[C@@H]2[C@H]3C(C)=CC[C@@]34O[C@@]4(C)CC[C@@H]12 [Arglabin (3), Arglabin] | 5.3 | 
